In paper doi:10.1101/2025.04.15.648887:
Results are given in words; binding and its absence hold for the method and conditions named. In cells and extracts the contact can be indirect. A result given as binding can be weak or reduced; the word gives no strength.

Target: YTHDF3 (rat (endogenous in H9c2))
Experiment: co-IP

binding: binds
B1: DDX5 (protein, UniProt Q6AYI1 1-615)
chain: MSSYSSDRDRGRDRGFGAPRFGGSRTGPLSGKKFGNPGEKLVKKKWNLDELPKFEKNFYQEHPDLARRTAQEVDTYRRSKEITVRGHNCPKPVLNFYEANFPANVMDVIARQNFTEPTAIQAQGWPVALSGLDMVGVAQTGSGKTLSYLLPAIVHINHQPFLERGDGPICLVLAPTRELAQQVQQVAAEYCRACRLKSTCIYGGAPKGPQIRDLERGVEICIATPGRLIDFLECGKTNLRRTTYLVLDEADRMLDMGFEPQIRKIVDQIRPDRQTLMWSATWPKEVRQLAEDFLKDYIHINIGALELSANHNILQIVDVCHDVEKDEKLIRLMEEIMSEKENKTIVFVETKRRCDELTRKMRRDGWPAMGIHGDKSQQERDWVLNEFKHGKAPILIATDVASRGLDVEDVKFVINYDYPNSSEDYIHRIGRTARSTKTGTAYTFFTPNNIKQVSDLISVLREANQAINPKLLQLVEDRGSGRSRGRGGMKDDRRDRYSAGKRGGFNTFRDRENYDRGYSSLLKRDFGAKTQNGVYSAANYTNGSFGSNFVSAGIQTSFRTGNPTGTYQNGYDSTQQYGSNVANMHNGMNQQAYAYPATAAAAPMIGYPMPTGYSQ
